Laboratory results as given in publication PMC5446404.
These are yes or no findings as the source states them, for the method shown. Sequences can lack the tags named with a protein.

The chains behind the UniProt entries cited, without tags or fusion partners. Residues count along the entry.
UniProt P02769, residues 25-607: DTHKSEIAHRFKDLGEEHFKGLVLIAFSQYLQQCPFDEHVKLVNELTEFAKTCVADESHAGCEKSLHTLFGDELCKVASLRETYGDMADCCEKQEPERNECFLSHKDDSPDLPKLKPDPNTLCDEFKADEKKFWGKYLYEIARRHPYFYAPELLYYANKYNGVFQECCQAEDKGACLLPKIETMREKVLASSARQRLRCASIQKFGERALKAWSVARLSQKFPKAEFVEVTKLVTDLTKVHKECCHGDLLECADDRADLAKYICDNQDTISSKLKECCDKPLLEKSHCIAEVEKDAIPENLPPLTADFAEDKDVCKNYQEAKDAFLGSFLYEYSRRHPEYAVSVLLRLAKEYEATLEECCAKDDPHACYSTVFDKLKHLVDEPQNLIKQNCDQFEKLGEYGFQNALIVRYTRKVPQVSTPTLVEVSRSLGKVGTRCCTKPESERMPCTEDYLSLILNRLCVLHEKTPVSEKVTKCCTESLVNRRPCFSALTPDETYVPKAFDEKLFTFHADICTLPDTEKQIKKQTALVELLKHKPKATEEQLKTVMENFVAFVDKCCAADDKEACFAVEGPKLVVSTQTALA
UniProt O75460, residues 401-500: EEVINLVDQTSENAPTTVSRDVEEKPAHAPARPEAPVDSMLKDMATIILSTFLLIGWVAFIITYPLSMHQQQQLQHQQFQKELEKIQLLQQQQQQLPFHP

Molecular target: T1, recombinant human fortilin (Strep-tag II), biotinylated (human) (UniProt P13693)
T1 sequence (chain, biotinylated (sites not stated)): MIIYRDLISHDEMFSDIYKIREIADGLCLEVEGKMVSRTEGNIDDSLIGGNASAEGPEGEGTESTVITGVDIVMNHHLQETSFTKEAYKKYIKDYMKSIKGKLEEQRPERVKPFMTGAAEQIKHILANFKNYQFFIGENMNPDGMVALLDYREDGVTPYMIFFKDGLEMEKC
Assay: BLI; BLItz (ForteBio); biotinylated fortilin immobilised on streptavidin-coated biosensors (25 μg/mL, 600 s), buffer exchange in PBS; analyte at various concentrations for 180 s, dissociation in PBS for 300 s; three independent experiments; both purified

Row | binding | Substance
1 | no binding | bovine serum albumin (from UniProt P02769 25-607)
2 | no binding | GST-IRE1α-TM (aa 401-500) (from UniProt O75460 401-500) (domain or fragment)
